Construct, isoform or probe ends are uncertain for at least one entry. At least one result comes from cells or an extract, where the contact may be indirect. For some assays here: Protein sequences can lack the tags named with them.

In series [1] the target is T1, CD109 (5-8F cell lysate) (UniProt Q6YHK3).
T1 sequence (looked up, limits assumed): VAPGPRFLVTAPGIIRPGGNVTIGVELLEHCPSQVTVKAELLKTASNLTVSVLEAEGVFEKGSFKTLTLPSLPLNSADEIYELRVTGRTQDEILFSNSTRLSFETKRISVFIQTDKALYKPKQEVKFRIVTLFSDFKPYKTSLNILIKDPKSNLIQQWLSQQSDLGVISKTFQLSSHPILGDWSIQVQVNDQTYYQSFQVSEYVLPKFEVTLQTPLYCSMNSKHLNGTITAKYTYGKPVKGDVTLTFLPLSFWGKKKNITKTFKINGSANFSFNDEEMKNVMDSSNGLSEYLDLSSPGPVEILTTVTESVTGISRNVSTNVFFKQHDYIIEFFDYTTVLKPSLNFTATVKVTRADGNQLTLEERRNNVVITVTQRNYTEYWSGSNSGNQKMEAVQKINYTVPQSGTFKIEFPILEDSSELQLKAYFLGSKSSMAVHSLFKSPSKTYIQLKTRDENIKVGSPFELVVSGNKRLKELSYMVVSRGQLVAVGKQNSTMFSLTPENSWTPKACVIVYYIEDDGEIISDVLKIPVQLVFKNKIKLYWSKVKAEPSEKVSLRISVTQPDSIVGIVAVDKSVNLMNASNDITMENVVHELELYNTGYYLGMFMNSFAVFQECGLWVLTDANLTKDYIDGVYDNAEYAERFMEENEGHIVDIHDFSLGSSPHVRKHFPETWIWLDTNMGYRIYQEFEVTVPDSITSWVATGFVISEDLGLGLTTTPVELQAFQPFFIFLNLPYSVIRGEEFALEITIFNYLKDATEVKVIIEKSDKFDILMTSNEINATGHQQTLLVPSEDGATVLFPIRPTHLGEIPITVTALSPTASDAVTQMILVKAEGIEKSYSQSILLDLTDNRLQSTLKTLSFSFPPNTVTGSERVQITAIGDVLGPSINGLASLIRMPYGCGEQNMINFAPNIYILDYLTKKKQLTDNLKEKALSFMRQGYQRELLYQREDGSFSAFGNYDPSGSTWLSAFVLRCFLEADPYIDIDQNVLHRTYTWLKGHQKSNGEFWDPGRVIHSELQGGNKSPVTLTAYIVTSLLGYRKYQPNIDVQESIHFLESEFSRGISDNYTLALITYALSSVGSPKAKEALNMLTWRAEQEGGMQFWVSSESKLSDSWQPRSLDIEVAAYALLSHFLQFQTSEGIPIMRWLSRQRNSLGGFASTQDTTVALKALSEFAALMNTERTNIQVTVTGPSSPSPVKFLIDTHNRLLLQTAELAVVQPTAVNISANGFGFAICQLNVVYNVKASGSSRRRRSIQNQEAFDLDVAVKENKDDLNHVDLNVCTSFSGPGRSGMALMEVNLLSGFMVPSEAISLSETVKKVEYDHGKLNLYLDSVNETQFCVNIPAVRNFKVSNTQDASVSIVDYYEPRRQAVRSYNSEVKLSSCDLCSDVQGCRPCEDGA
In words: pull-down with mass spectrometry. As to conditions: 5-8F lysate, streptavidin beads, 4 C, no S3-specific band with library or beads only; Cells: D-PBS (Ca/Mg-free) + 4.5 g/L glucose, 5 mM MgCl2, 0.1 mg/mL yeast tRNA, 1 mg/mL BSA, 10% FBS, on ice 0.5 h; protein in an extract; label: biotin; single-stranded DNA.

For series [2], the target named is CD109 expressed on 293T cells (UniProt Q6YHK3). In words: flow cytometry. As to conditions: CD109-transfected 293T, no binding to native or empty-vector 293T; Cells: D-PBS (Ca/Mg-free) + 4.5 g/L glucose, 5 mM MgCl2, 0.1 mg/mL yeast tRNA, 1 mg/mL BSA, 10% FBS, on ice 0.5 h; protein on the cell surface; label: FITC; single-stranded DNA. A general note: Flow cytometry measures light scatter and fluorescence of single cells or particles in a stream.

With “ATCCAGAGTGACGCAGCATCTGAGAATAGTGGTTTGCTGTATGGTGGGCGTTGAAAGAGGGGTGGACACGGTGGCTTAGT [S3 (biotin-labeled)]”, the binding result in series [1] is “binds”.
In the case of “ATCCAGAGTGACGCAGCATCTGAGAATAGTGGTTTGCTGTATGGTGGGCGTTGAAAGAGGGGTGGACACGGTGGCTTAGT [S3 (FITC-labeled)]”, the binding result in series [2] is given as “binds”.

Values taken from article PMC5342420, “CD109 is identified as a potential nasopharyngeal carcinoma biomarker using aptamer selected by cell-SELEX”.
